Source: the supplement of paper PMC8975748
Structures can show the parent of a compound that is named as a salt. ± gives the standard deviation of the averaged measurements. The list shows a part of the results. Values are raw readings; no control value is given beside them.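 The yeast community starts from one strain carrying four plasmids, each with an amino-acid or uracil synthesis gene and a fluorescent protein. Random plasmid loss creates mixed prototroph and auxotroph subpopulations. Cells were fixed and counted by automated confocal fluorescence imaging, and DMSO-treated wells served as the vehicle reference.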

These compounds were tested on Saccharomyces cerevisiae BY4741 SeMeCo community (assay: imaged cell count per well (cells); higher = more cells). Conditions: 10 µM; 24 h; SM minimal medium.
Experimental: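 Same SeMeCo high-content imaging drug screen: Selleck FDA-approved drugs at 10 µM, 24 h in SM medium, 384-well plates, 3 replicates.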

In order of rising “imaged cell count per well” value:
1. Oc1c(I)cc(Cl)c2cccnc12 [Clioquinol]  627 ± 690
2. CCCCCCCCN=C(N)NC(N)=NCc1ccc(Cl)c(Cl)c1 [Olanexidine Hydrochloride semihydrate]  1460 ± 290
3. CCC(C)(C)c1ccc(CC(C)CN2C[C@@H](C)O[C@@H](C)C2)cc1 (stereo not given in full) [Amorolfine HCl]  4330 ± 610
4. C=C1CCN([C@H](C)[C@](O)(Cn2cncn2)c2ccc(F)cc2F)CC1 [Efinaconazole]  5670 ± 790
5. CC[N+](CC)(CC)CCOc1cccc(OCC[N+](CC)(CC)CC)c1OCC[N+](CC)(CC)CC [Gallamine Triethiodide]  19200 ± 5000
6. Cc1ncc([N+](=O)[O-])n1C [Dimetridazole]  20100 ± 2200
7. COc1ccccc1OCC(O)CN1CCN(CC(=O)Nc2c(C)cccc2C)CC1 (stereo not given) [Ranolazine]  21100 ± 2000
8. Nc1ccc(S(=O)(=O)c2ccc(N)cc2)cc1 [Dapson]  21300 ± 8400
9. O=c1n(CCCN2CCN(c3cccc(Cl)c3)CC2)nc2ccccn12 [Trazodone HCl]  22200 ± 3400
10. O=C1CCc2ccc(OCCCCN3CCN(c4cccc(Cl)c4Cl)CC3)cc2N1 [Aripiprazole]  22300 ± 1900
11. CCN(Cc1ccncc1)C(=O)C(CO)c1ccccc1 (stereo not given) [Tropicamide]  23000 ± 3900
12. C[N+]1(C)[C@@H]2CC[C@H]1C[C@@H](OC(=O)C(O)c1ccccc1)C2 (stereo not given in full) [Homatropine Methylbromide]  23100 ± 9800
13. C[C@]12CC[C@@H]3c4ccc(OC(=O)c5ccccc5)cc4CC[C@H]3[C@@H]1CC[C@@H]2O [Estradiol Benzoate]  24200 ± 7600
14. CC1(C)S[C@@H]2[C@H](NC(=O)[C@H](N)c3ccc(O)cc3)C(=O)N2[C@H]1C(=O)O [Amoxicillin trihydrate]  24200 ± 3600
15. CCOC(=O)C1=C(C)NC(C)=C(C(=O)OC)C1c1cccc(Cl)c1Cl (stereo not given) [Felodipine]  24500 ± 2200
16. O=C(CCCN1CCC(O)(c2ccc(Cl)cc2)CC1)c1ccc(F)cc1 [Haloperidol]  24700 ± 7500
17. Cn1nnc(-c2ccc(-c3ccc(N4C[C@H](COP(=O)(O)O)OC4=O)cc3F)cn2)n1 [Tedizolid Phosphate]  25000 ± 5100
18. Cc1cccc(Nc2ccccc2C(=O)O)c1C [Mefenamic Acid]  25100 ± 4900
19. CC[C@H](C)C(=O)O[C@H]1CCC=C2C=C[C@H](C)[C@H](CC[C@@H]3C[C@@H](O)CC(=O)O3)[C@H]21 [Mevastatin]  25600 ± 2900
20. C[N+](C)(C)CCOC(=O)CCC(=O)OCC[N+](C)(C)C [Succinylcholine Chloride Dihydrate]  26000 ± 6000
21. O=C1Cc2cc(CCN3CCN(c4nsc5ccccc45)CC3)c(Cl)cc2N1 [Ziprasidone HCl]  26300 ± 1200
22. CS(=O)(=O)c1ccc(C2=C(c3ccccc3)C(=O)OC2)cc1 [Rofecoxib]  27200 ± 4800
23. CC1CCc2cc(F)cc3c(=O)c(C(=O)O)cn1c23 (stereo not given) [Flumequine]  28200 ± 3200
24. O=C(O)c1cn(-c2ccc(F)cc2)c2cc(N3CCNCC3)c(F)cc2c1=O [Sarafloxacin HCl]  29500 ± 2600
25. CCCCCCCCCC(=O)CC(O)S(=O)(=O)O (stereo not given) [Sodium Houttuyfonate]  31000 ± 3900
